Paper PMC11300456
Results are given in words; binding and its absence hold for the method and conditions named. Binding seen in cells or lysates may run through a third protein. Some results given as binding are weak or reduced against the parent protein; the word gives no strength.

Protein sequences, listed by entry. Tags and fused reporters are not part of them. Lines headed by an entry give the natural chain unless they say otherwise; changes in a name come on top. Chains listed by the source or under a name are the forms on record and can include a tag or linker.
UniProt P04198: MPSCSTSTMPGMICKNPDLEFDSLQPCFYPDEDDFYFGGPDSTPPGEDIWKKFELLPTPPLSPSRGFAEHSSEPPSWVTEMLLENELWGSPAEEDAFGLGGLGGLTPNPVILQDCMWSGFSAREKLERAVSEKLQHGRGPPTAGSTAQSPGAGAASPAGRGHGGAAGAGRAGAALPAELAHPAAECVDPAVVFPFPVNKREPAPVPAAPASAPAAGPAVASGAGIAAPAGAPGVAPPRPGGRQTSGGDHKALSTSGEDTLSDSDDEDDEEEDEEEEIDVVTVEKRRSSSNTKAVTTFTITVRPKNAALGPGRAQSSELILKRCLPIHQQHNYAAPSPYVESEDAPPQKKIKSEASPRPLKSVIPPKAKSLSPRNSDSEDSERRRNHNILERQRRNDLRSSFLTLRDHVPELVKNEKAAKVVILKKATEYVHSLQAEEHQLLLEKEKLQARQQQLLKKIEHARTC
HA-N-Myc-ΔLILKR (P04198, form named): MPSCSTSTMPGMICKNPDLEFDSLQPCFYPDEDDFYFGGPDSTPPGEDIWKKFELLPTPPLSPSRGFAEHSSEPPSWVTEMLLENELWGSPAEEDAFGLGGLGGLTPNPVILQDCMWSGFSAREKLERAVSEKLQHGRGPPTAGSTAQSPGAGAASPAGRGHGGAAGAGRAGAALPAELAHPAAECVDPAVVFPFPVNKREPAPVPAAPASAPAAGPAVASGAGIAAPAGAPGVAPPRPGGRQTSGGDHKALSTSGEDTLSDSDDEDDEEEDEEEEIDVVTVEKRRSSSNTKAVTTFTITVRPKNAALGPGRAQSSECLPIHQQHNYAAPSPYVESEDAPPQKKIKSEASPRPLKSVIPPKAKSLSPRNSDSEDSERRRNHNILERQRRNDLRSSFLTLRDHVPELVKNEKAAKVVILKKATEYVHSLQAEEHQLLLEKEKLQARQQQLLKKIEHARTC
HA-N-Myc Δ314-342 (P04198, form named): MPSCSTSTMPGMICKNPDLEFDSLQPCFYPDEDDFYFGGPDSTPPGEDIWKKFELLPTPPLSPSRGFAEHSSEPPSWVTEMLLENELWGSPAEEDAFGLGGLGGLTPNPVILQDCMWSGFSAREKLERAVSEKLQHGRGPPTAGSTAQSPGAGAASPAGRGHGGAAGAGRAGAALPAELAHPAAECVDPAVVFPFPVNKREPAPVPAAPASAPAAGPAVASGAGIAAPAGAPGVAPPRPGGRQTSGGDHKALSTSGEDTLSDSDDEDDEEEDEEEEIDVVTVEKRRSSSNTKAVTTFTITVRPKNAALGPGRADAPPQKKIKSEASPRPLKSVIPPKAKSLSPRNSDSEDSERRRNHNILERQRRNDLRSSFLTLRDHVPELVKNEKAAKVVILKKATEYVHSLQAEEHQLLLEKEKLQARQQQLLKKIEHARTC
UniProt Q9UNE7: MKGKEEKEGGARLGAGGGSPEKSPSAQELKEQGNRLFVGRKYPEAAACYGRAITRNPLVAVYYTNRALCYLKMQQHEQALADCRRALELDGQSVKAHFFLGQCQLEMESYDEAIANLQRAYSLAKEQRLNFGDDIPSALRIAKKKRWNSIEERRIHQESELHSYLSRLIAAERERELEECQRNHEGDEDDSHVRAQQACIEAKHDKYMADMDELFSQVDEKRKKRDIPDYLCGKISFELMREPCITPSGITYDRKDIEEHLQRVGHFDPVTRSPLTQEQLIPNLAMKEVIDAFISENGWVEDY

Experiments:
[1] = target: HA-tagged full-length N-Myc (amino acids 1–464) (UniProt P04198); experiment: co-IP; HEK293 co-transfected with HA-N-Myc constructs and Flag-STUB1 constructs, with or without His-HSP70; lysate precipitated with anti-HA antibody; western blot
HA-N-Myc-ΔLILKR = HA-N-Myc-ΔLILKR (UniProt P04198); experiment: as above
HA-N-Myc Δ314-342 = HA-N-Myc Δ314-342 (UniProt P04198); experiment: as above
[2] = target: N-Myc, endogenous (human (endogenous in CWR22Rv1 and UCDCaP-CR)) (UniProt P04198); experiment: co-IP; endogenous proteins in CWR22Rv1 and UCDCaP-CR lysates; in Fig. 5f CWR22Rv1 treated with JG231 (5 µM) overnight, then MG132, precipitated with N-Myc antibody

| Substance | binding [1] | binding (HA-N-Myc-ΔLILKR) | binding (HA-N-Myc Δ314-342) | binding [2] |
| --- | --- | --- | --- | --- |
| Flag-STUB1 K30A (from UniProt Q9UNE7 1-303) (enzyme) | binds | – | – | – |
| Flag-STUB1 (from UniProt Q9UNE7 1-303) (enzyme) | binds | binds weakly | binds weakly | – |
| STUB1, endogenous (from UniProt Q9UNE7 1-303) (enzyme) | – | – | – | binds |
